# Results published in PubChem BioAssay (Tox21).
# Sequences of proteins named here, by UniProt entry; tags and fusion partners are left off.
# UniProt P14416, whole entry, looked up: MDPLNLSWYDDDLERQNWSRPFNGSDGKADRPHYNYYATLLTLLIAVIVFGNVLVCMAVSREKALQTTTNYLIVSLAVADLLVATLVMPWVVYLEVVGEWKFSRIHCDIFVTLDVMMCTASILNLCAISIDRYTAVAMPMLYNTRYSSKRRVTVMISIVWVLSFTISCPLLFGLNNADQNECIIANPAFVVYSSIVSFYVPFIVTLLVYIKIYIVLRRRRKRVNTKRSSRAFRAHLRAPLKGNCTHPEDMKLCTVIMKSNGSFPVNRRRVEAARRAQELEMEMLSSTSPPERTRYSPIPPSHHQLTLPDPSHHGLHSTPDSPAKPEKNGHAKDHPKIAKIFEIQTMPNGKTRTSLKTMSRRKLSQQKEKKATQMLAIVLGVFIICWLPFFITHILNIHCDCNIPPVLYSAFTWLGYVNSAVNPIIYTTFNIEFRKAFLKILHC
# The inconclusive results got no clear call from the source; some entries with a clear call stand among them for comparison. For some assays here: A potency beside an inconclusive call is a rough fit, not a confirmed value. Active and inactive are the calls of the source. Unless noted, calls follow the shape of the full dose curve.
# Tests used:
# [1] = p53 small molecule agonists, cell-based qHTS assay with rat liver microsomes: qHTS cell viability counter screen (AID 1963580); conditions: p53RE-bla HCT-116 + rat microsomes, ATP viability, 16 h; series mostly up to 66 µM; also: nearly all actives have a fitted effect of over 45% in size; also: potency is read from the fitted curve at half-maximal effect
# Outline: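 p53RE-bla HCT-116 cells were exposed 16 h at 37 C to compounds with rat liver microsomes (0.5 mg/mL) and NADPH (0.5 mg/mL). Viability was measured in the same wells as ATP content by CellTiter-Glo luminescence.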
# [2] = molecular target: Beta-2 adrenergic receptor (Homo sapiens) (UniProt P07550); assay: Adrenergic beta2 receptor (ADRB2) small molecule agonists, cell-based qHTS assay (AID 1963593); conditions: CHO-ADRB2 cells, cAMP HTRF, 30 min; activation: at 92.4 µM (top of the series) unless noted; also: potency is read from the fitted curve at half-maximal effect;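 as to activation: CHO cells stably overexpressing human ADRB2; % is scaled to controls: 0 for no effect and ±100 for the full control effect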
# Outline: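 CHO cells stably over-expressing ADRB2 were plated overnight at 37C, then dosed with compounds plus a stimulation mix containing 100uM IBMX and 25uM Ro-20-1724 for 0.5hr at room temperature. cAMP was measured by HTRF competition, 1hr.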
# [3] = cAMP Responsive Elements (CRE) small molecule antagonists, cell-based qHTS assay (AID 1963591; active = well fitted inhibition curve with a large enough effect in the signal ratio in the repeat runs, not every such curve was filed as active; inconclusive = weak or mixed curves, or effect the other way; the % refers to the signal ratio; also: % is scaled to controls: 0 for no effect and ±100 for the full control effect); conditions: CRE-bla HEK293T, beta-lactamase FRET ratio; activity change, negative = inhibition: at 92.4 µM (top of the series) unless noted
# Outline: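 qHTS in CRE-bla HEK 293T cells: compound in DMSO, then 0.25 uM NKH477 (final), 3 h at 37 °C/5% CO2; beta-lactamase FRET read-out after 2 h substrate incubation.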
# [4] = molecular target: D(2) dopamine receptor (Homo sapiens) (UniProt P14416); assay: Dopamine D2 receptor (DRD2) small molecule antagonists, cell-based qHTS assay (AID 1963595; active = well fitted inhibition curve with a large enough effect in the signal ratio in the repeat runs, with a control signal flat; inconclusive = weak or mixed curves, or effect the other way; the % refers to the signal ratio; also: % is scaled to controls: 0 for no effect and ±100 for the full control effect); conditions: HEK293-DRD2 cAMP HTRF antagonist mode; activity change, negative = inhibition: at 92.4 µM (top of the series) unless noted
# Outline: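 Stable D2 receptor HEK293 line, 24 h after seeding. Compound preincubated 10 min, then quinpirole (12 nM) with forskolin analogue NKH477 (200 nM), 30 min, room temperature. Detection by time-resolved FRET of cAMP.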
# [5] = molecular target: Beta-2 adrenergic receptor (Homo sapiens) (UniProt P07550); assay: Adrenergic beta2 receptor (ADRB2) small molecule antagonists, cell-based qHTS assay (AID 1963592); conditions: CHO-ADRB2 cells, isoproterenol-stimulated cAMP HTRF ratio, 0.5 h; activity change, negative = inhibition: at 92.4 µM (top of the series) unless noted; also: potency is read from the fitted curve at half-maximal effect; nearly all actives have a fitted effect of over 50% in size
# Outline: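 Cells (CHO, stable ADRB2 overexpression) incubated 18-20hr at 37C; compounds added from DMSO; agonist mix (1nM isoproterenol, 100uM IBMX, 25uM Ro-20-1724) added; 0.5hr RT; d2-cAMP and anti-cAMP-cryptate added; 1hr RT; 665/615 nm read.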
smiles,measurement,setting,value
NC(=O)NO,Potency,[1],"inconclusive: 0.89 µM [cytotoxic, single point]"
same,Potency,[2],inactive
CC1=C(C)C(=O)C(C(CCCCCC(=O)O)c2ccccc2)=C(C)C1=O (stereo unspecified),Potency,[1],inactive
same,"activity change, negative = inhibition",[3],inconclusive: 15.2% [at 42.4 µM]
same,activation,[2],inconclusive: 32.7% [at 42.5 µM]
same,Potency,[4],inactive
CC(C)(CO)C(O)C(=O)NCCCO (stereo unspecified),Potency,[1],inactive
same,Potency,[2],"inconclusive: 0.243 µM [inhibitor, single point]"
C=C(C)C(=O)OCCCCCCCCCCCCCCCCCC,Potency,[1],"inconclusive: 0.527 µM [cytotoxic, single point]"
same,Potency,[5],"inconclusive: 0.0007 µM [falling, full curve, poor fit]"
same,activation,[2],inactive: -0.576% [at 19 µM]

# Reformatted: entries from further up
smiles | measurement | setting | value
CC(C)(CO)C(O)C(=O)NCCCO (stereo unspecified) | Potency | [2] | inconclusive: 0.243 µM [inhibitor, single point]
C=C(C)C(=O)OCCCCCCCCCCCCCCCCCC | Potency | [5] | inconclusive: 0.0007 µM [falling, full curve, poor fit]
